Data reported in the supplement of paper PMC12819154, “High-throughput peptide-centric local stability assay extends protein–ligand identification to membrane proteins, tissues and bacteria” (Nature Structural & Molecular Biology, 2025).
This is one part of the list. Most values lie at the level of the controls, where differences are scatter.

The chains behind the UniProt entries cited, without tags or fusion partners. Where a name states a change or a piece, a line headed by the entry shows the natural chain unless it says otherwise.
UniProt O14602, whole entry: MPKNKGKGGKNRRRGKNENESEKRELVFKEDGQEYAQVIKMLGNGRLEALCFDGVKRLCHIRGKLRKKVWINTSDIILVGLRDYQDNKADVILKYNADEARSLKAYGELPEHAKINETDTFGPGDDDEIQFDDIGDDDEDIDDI
UniProt O15091: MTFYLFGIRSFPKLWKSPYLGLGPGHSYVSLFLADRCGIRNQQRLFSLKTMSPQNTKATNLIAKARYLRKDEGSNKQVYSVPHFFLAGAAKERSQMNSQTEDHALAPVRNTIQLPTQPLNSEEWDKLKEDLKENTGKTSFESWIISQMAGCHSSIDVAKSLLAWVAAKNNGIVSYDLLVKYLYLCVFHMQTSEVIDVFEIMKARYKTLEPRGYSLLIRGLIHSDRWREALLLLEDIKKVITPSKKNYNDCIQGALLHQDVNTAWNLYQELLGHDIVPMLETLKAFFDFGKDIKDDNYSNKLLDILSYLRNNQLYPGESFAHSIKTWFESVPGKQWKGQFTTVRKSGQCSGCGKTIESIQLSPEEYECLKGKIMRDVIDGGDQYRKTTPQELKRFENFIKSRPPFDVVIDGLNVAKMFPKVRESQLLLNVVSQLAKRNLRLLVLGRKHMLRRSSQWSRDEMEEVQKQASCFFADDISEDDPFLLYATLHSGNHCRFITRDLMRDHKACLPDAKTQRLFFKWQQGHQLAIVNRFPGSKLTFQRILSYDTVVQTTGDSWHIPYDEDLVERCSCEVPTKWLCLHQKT
UniProt O15382: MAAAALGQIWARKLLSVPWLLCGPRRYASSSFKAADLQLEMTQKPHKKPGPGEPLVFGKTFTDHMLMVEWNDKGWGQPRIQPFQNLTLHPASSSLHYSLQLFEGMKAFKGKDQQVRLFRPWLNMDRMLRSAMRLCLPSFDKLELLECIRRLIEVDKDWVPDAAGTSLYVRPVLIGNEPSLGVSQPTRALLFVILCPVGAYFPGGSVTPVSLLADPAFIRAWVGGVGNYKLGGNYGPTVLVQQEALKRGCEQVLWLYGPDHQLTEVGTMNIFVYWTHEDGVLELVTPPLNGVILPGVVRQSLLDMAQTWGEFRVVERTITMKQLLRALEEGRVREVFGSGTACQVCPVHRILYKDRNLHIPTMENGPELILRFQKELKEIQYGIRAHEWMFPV
UniProt O14810: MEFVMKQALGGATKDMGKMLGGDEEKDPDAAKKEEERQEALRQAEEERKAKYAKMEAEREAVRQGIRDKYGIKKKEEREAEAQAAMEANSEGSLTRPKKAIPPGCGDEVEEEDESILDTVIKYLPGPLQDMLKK
UniProt O15258: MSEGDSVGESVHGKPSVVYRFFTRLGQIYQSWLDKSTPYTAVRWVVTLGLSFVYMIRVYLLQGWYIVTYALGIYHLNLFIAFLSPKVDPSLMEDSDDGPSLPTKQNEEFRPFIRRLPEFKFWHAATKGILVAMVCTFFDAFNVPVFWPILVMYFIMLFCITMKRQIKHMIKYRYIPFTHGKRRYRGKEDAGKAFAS
UniProt O00139: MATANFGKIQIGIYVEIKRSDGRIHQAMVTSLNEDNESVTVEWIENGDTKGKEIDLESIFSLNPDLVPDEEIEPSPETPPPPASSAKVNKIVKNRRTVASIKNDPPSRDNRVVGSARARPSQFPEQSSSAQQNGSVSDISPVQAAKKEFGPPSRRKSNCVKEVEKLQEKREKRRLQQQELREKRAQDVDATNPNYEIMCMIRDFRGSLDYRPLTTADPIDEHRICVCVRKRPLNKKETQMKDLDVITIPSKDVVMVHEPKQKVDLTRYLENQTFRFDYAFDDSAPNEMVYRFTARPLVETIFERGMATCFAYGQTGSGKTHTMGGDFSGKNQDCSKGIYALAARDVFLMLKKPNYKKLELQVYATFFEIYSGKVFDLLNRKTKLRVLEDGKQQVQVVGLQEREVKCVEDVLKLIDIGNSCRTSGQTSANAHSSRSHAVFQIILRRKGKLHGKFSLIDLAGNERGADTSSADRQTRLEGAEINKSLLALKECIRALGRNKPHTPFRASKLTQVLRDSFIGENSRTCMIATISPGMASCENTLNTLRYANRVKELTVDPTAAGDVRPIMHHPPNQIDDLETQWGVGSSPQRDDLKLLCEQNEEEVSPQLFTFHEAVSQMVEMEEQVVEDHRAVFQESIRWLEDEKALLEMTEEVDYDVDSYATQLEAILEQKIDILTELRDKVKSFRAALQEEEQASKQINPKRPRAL
UniProt G2XKQ0: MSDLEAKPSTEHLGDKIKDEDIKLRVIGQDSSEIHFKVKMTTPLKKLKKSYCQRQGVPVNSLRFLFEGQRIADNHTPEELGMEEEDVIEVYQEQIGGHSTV
UniProt O00151: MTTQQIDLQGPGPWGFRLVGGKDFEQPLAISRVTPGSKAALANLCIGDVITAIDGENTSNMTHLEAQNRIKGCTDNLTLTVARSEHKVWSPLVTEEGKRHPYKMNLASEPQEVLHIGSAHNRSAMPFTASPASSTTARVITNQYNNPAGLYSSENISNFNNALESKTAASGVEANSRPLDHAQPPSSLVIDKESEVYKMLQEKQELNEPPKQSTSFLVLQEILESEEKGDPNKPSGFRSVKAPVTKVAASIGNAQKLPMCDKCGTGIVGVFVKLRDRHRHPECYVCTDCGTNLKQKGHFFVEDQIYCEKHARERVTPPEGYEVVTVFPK
UniProt O14981: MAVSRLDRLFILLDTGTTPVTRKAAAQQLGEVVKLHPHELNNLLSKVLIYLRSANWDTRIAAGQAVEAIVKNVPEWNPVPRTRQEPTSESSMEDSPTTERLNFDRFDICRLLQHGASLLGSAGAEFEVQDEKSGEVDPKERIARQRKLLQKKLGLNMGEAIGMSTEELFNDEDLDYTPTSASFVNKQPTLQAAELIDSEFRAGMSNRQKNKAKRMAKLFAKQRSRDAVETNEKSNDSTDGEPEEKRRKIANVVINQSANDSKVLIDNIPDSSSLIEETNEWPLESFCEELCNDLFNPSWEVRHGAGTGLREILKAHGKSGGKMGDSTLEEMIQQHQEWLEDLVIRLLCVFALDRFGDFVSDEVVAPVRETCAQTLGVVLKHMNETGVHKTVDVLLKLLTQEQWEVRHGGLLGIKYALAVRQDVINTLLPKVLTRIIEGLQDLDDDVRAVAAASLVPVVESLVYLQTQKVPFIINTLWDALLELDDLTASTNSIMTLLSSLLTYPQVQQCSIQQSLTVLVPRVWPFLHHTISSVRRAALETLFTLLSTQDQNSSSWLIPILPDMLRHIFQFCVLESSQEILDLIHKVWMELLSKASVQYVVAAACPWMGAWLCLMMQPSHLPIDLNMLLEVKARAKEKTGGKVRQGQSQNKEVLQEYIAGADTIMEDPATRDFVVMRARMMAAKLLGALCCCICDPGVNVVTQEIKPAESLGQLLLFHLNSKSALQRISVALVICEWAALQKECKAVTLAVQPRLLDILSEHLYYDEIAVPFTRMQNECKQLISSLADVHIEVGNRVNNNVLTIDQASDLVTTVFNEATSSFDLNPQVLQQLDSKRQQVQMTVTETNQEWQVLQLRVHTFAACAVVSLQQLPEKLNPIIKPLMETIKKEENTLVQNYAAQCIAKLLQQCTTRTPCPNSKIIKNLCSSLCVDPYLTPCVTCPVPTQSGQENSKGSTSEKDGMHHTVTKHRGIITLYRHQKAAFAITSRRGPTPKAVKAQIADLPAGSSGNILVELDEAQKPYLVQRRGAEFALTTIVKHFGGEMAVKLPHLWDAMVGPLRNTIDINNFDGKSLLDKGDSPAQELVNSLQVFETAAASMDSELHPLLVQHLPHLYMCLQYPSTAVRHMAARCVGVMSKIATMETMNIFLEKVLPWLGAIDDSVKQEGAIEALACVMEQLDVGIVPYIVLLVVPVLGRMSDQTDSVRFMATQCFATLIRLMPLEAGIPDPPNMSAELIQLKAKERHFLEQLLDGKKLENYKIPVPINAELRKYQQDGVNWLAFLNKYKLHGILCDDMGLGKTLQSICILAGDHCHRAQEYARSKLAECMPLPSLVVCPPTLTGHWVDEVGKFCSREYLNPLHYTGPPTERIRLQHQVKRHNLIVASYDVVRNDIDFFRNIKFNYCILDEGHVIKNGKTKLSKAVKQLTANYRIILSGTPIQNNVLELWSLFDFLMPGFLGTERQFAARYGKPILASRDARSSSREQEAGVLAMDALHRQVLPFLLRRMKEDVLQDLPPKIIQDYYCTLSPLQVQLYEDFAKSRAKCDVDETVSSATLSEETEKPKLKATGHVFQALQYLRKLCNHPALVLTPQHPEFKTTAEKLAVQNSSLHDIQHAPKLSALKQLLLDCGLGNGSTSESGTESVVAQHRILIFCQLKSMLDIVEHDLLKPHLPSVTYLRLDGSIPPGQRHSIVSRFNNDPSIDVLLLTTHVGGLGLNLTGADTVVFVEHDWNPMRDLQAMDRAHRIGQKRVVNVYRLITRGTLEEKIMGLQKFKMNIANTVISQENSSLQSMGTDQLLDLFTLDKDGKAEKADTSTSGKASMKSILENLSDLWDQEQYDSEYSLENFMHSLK
UniProt O14618: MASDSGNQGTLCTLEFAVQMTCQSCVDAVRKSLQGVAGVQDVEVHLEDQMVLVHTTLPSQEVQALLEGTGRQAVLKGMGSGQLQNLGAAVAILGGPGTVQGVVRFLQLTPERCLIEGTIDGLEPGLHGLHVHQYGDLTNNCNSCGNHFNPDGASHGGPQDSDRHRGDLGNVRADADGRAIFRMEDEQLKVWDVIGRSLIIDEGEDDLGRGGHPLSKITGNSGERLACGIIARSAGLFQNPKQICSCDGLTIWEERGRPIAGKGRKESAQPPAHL
UniProt O15126: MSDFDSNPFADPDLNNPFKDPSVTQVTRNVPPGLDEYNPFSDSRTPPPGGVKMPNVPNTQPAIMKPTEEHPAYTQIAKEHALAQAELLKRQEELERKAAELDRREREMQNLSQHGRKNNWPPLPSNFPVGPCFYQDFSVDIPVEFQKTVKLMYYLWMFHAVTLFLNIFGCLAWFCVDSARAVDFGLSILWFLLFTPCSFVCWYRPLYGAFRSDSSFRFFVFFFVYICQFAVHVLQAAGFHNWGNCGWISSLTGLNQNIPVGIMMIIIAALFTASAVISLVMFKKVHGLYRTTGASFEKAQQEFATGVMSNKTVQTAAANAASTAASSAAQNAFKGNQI
UniProt O15260: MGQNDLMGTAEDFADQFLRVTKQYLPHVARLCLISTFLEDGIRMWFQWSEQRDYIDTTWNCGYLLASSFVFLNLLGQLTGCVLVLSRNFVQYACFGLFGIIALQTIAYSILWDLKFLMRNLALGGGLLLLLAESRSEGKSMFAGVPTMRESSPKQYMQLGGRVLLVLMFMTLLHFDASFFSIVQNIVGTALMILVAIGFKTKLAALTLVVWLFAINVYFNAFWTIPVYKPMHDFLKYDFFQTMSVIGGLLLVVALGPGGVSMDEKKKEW
UniProt O00463: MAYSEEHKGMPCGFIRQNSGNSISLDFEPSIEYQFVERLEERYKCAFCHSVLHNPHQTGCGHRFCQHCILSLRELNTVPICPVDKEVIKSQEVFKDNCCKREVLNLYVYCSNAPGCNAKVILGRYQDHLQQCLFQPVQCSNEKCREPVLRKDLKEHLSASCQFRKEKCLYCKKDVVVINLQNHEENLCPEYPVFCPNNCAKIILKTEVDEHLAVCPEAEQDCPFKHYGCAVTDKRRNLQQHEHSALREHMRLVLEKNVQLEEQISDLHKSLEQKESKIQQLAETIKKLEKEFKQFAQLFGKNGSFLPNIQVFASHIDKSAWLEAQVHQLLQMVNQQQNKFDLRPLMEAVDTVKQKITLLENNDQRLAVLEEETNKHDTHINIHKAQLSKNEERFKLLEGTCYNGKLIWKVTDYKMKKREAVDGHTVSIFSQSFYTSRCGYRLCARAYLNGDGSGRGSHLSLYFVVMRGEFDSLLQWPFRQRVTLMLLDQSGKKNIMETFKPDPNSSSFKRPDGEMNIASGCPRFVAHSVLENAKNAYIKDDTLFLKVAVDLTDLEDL
UniProt O00566: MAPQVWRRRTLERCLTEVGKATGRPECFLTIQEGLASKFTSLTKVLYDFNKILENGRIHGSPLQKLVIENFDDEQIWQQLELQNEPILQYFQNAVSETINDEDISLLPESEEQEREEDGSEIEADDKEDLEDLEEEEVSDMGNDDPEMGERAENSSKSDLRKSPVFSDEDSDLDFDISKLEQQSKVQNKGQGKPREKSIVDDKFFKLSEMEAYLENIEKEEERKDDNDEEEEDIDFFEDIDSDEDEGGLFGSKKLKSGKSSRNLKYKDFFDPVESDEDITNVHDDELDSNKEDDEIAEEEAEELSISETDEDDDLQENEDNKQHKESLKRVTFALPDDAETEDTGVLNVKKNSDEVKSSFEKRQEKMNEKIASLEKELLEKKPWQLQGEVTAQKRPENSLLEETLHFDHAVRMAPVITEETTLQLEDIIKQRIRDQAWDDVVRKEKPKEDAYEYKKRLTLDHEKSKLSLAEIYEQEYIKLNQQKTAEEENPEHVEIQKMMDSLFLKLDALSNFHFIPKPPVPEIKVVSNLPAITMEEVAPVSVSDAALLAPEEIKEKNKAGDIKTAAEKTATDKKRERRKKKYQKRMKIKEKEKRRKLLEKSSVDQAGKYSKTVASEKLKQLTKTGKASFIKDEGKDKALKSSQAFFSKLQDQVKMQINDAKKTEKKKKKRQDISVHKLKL

Compound: Cc1nc(Nc2ncc(C(=O)Nc3c(C)cccc3Cl)s2)cc(N2CCN(CCO)CC2)n1 [dasatinib]
Experiment: log2 fold change of tryptic peptide abundance, ligand vs vehicle (limited proteolysis) (log2 ratio); higher = more trypsin-susceptible (destabilized)
Details: ligand concentration: 5 uM; sample: K562 cleared lysate

Row | Target | log2 fold change
1 | UniProt O14602 (peptide sequence: EDGQEYAQVIK, peptide start residue: 30) | 0.104
2 | UniProt O14733 (peptide sequence: HMLGLPSTLFTPR, peptide start residue: 73) | -0.171
3 | UniProt O15091 (peptide sequence: SSQWSRDEMEEVQK, peptide start residue: 452) | 0.4
4 | BCAT2 (peptide sequence: LFRPWLNMDR, peptide start residue: 117) (UniProt O15382) | 0.157
5 | HAX1 (peptide sequence: ITKPDGIVEER, peptide start residue: 216) (UniProt O00165) | -0.169
6 | CPLX1 (peptide sequence: YLPGPLQDMLKK, peptide start residue: 123) (UniProt O14810) | -0.158
7 | ABCC5 (peptide sequence: TEHQAVLAEQK, peptide start residue: 536) (UniProt O15440) | 0.0608
8 | UniProt H3BRN8 (peptide sequence: STSPSNSDTEMK, peptide start residue: 10) | 0.227
9 | DVL2 (peptide sequence: VIYHLDEEETPYLVKIPVPAER, peptide start residue: 16) (UniProt O14641) | 0.133
10 | ZNF646 (peptide sequence: QTHQTGDFSCGACAK, peptide start residue: 637) (UniProt O15015) | 0.229
11 | RER1 (peptide sequence: YRGKEDAGK, peptide start residue: 184) (UniProt O15258) | -0.269
12 | ZBTB5 (peptide sequence: MPVVTSVR, peptide start residue: 542) (UniProt O15062) | -0.315
13 | UniProt O14757 (peptide sequence: MCGTLPYVAPELLKR, peptide start residue: 167) | -0.584
14 | KIF2A (peptide sequence: GSLDYRPLTTADPIDEHR, peptide start residue: 206) (UniProt O00139) | 0.1
15 | UniProt O15504 (peptide sequence: DQEKPYFSSFDSGASTNRK, peptide start residue: 74) | 0.342
16 | UniProt O15231 (peptide sequence: VGEAWQERPGAPR, peptide start residue: 417) | 0.276
17 | MIF4GD (peptide sequence: VANVIVDHSLQDCVFSK, peptide start residue: 37) (UniProt A9UHW6) | 0.155
18 | EIF3H (peptide sequence: EFTAQNLGK, peptide start residue: 332) (UniProt O15372) | 0.0599
19 | UniProt G2XKQ0 (peptide sequence: VIGQDSSEIHFK, peptide start residue: 26) | 0.0861
20 | PIK3R2 (peptide sequence: YQQDQIVK, peptide start residue: 428) (UniProt O00459) | 0.631
21 | PDLIM1 (peptide sequence: QKGHFFVEDQIYCEK, peptide start residue: 295) (UniProt O00151) | -0.285
22 | ARPC1B (peptide sequence: NAYVWTLK, peptide start residue: 75) (UniProt O15143) | -0.34
23 | UniProt O14920 (peptide sequence: KYLNQFENCCGLR, peptide start residue: 106) | 0.331

Row | Target | log2 fold change
24 | BTAF1 (peptide sequence: ATGHVFQALQYLRK, peptide start residue: 1564) (UniProt O14981) | 0.457
25 | INPPL1 (peptide sequence: DSQEDWTTFTHDR, peptide start residue: 351) (UniProt O15357) | 0.291
26 | GYG2 (peptide sequence: VKELSPEEER, peptide start residue: 464) (UniProt O15488) | 0.275
27 | ZNF724 (peptide sequence: AFNLSSHLTTHK, peptide start residue: 486) (UniProt A8MTY0) | 0.33
28 | UniProt O14618 (peptide sequence: ESAQPPAHL, peptide start residue: 266) | -0.0481
29 | SNAP23 (peptide sequence: IEEGLDQINKDMR, peptide start residue: 55) (UniProt O00161) | -0.0649
30 | YKT6 (peptide sequence: ASVKEQDYLCHVYVR, peptide start residue: 57) (UniProt O15498) | -0.303
31 | UniProt O15391 (peptide sequence: FSLDFNLR, peptide start residue: 364) | 0.313
32 | UniProt O14966 (peptide sequence: LQLWDIAGQER, peptide start residue: 77) | -0.117
33 | UniProt O15040 (peptide sequence: DGLEMSGCSER, peptide start residue: 364) | 0.108
34 | TXNDC9 (peptide sequence: KFGTNFTK, peptide start residue: 201) (UniProt O14530) | 0.0669
35 | UniProt O00507 (peptide sequence: LLQISSFNGK, peptide start residue: 342) | -0.247
36 | ARHGEF10 (peptide sequence: HLAVHPPESLAVVANAKPNK, peptide start residue: 722) (UniProt O15013) | -0.502
37 | SCAMP1 (peptide sequence: EHALAQAELLK, peptide start residue: 79) (UniProt O15126) | 0.093
38 | TPP1 (peptide sequence: ILSGRPPLGFLNPR, peptide start residue: 493) (UniProt O14773) | -0.0916
39 | SURF4 (peptide sequence: SMFAGVPTMR, peptide start residue: 140) (UniProt O15260) | 0.074
40 | FPGT (peptide sequence: FLHKPSIEK, peptide start residue: 240) (UniProt O14772) | 0.0364
41 | STXBP3 (peptide sequence: IENESDMIR, peptide start residue: 432) (UniProt O00186) | 0.273
42 | IPO8 (peptide sequence: IIVSDHVEFPVR, peptide start residue: 42) (UniProt O15397) | 0.0742
43 | UniProt E7ETH6 (peptide sequence: TECVSPFQCGGAHYSHGDSMK, peptide start residue: 201) | -0.203
44 | ARVCF (peptide sequence: NLSYHVHKEVPGADR, peptide start residue: 577) (UniProt O00192) | 0.452
45 | TRAF5 (peptide sequence: HYGCAVTDK, peptide start residue: 226) (UniProt O00463) | 0.4
46 | MPHOSPH10 (peptide sequence: ATGRPECFLTIQEGLASK, peptide start residue: 21) (UniProt O00566) | -0.724

In another format: entries from further up

| Row | Target | log2 fold change |
| --- | --- | --- |
| 44 | ARVCF (peptide sequence: NLSYHVHKEVPGADR, peptide start residue: 577) (UniProt O00192) | 0.452 |
| 45 | TRAF5 (peptide sequence: HYGCAVTDK, peptide start residue: 226) (UniProt O00463) | 0.4 |
